According to paper PMC4866825, “The GIRK1 subunit potentiates G protein activation of cardiac GIRK1/4 hetero-tetramers” (eLife, 2016):
These are yes or no findings as the source states them, for the method shown. Some results given as binding are weak or reduced against the parent protein; the word gives no strength. Where a sequence is shown, tags or fusion partners need not be part of it.

Molecular target: T1, GIRK1(N217D) with C-terminal PreScission site, eGFP and deca-histidine tag (human) (UniProt P48549)
T1 sequence: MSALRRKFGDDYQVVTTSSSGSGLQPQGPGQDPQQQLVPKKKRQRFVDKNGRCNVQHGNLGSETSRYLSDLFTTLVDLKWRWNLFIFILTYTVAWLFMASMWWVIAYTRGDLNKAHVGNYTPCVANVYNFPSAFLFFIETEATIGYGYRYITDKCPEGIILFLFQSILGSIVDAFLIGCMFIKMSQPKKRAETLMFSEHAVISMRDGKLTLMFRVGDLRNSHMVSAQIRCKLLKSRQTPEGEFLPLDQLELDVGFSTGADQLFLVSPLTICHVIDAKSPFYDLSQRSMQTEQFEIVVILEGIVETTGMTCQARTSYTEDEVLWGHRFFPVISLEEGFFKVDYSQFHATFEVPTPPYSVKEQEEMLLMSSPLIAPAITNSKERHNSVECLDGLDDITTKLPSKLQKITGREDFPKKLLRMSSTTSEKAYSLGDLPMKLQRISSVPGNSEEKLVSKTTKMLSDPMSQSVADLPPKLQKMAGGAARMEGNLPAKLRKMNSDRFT
Assay: sequential affinity chromatography (co-purification); GIRK1-His and GIRK4-1D4 co-expressed in HEK293S GnTI- cells, solubilized in 4% DM; Talon Co2+ resin (His10 on GIRK1), eluted with 200 mM imidazole, then 1D4 affinity resin (1D4 tag on GIRK4); buffer A: 50 mM HEPES-KOH pH 7.0, 150 mM KCl, 0.4% DM; 4°C

B1: GIRK4-1D4 (human full-length GIRK4 with C-terminal PreScission site, eGFP and 1D4 peptide tag) (natural protein, UniProt P48544 1-419, looked up)
chain: MAGDSRNAMNQDMEIGVTPWDPKKIPKQARDYVPIATDRTRLLAEGKKPRQRYMEKSGKCNVHHGNVQETYRYLSDLFTTLVDLKWRFNLLVFTMVYTVTWLFFGFIWWLIAYIRGDLDHVGDQEWIPCVENLSGFVSAFLFSIETETTIGYGFRVITEKCPEGIILLLVQAILGSIVNAFMVGCMFVKISQPKKRAETLMFSNNAVISMRDEKLCLMFRVGDLRNSHIVEASIRAKLIKSRQTKEGEFIPLNQTDINVGFDTGDDRLFLVSPLIISHEINQKSPFWEMSQAQLHQEEFEVVVILEGMVEATGMTCQARSSYMDTEVLWGHRFTPVLTLEKGFYEVDYNTFHDTYETNTPSCCAKELAEMKREGRLLQYLPSPPLLGGCAEAGLDAEAEQNEEDEPKGLGGSREARGSV
notes: G protein gated inward rectifier K+ channel subunit GIRK4, human, full length; also called 1D4-tagged GIRK4; GIRK4 subunit; source: HEK293S GnTI- cells, BacMam transduced together with GIRK1-His (1:1), solubilized in DM; not shown: eGFP, C-terminal, kept; 1D4 peptide, C-terminal, kept
For B1, the binding was “binds”.
